Test results: the supplement of paper PMC12067093, “Discovery and optimisation of a covalent ligand for TRIM25 and its application to targeted protein ubiquitination” (Chemical Science, 2025)
The list shows a part of the results.

The chains behind the UniProt entries cited, without tags or fusion partners. Where a name states a change or a piece, a line headed by the entry shows the natural chain unless it says otherwise.
UniProt Q96EP5: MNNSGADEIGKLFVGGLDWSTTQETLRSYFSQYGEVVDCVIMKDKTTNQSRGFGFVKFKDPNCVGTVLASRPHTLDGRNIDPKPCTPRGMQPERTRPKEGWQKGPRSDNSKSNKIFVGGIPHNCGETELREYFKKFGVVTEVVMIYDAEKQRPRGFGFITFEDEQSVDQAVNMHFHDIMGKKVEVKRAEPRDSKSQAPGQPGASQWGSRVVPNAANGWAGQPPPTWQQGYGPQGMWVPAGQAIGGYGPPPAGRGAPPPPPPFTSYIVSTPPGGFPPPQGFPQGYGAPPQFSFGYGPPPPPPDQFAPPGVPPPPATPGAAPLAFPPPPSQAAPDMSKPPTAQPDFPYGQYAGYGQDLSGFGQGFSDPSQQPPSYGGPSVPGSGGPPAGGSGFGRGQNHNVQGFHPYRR
UniProt Q13616, whole entry, looked up: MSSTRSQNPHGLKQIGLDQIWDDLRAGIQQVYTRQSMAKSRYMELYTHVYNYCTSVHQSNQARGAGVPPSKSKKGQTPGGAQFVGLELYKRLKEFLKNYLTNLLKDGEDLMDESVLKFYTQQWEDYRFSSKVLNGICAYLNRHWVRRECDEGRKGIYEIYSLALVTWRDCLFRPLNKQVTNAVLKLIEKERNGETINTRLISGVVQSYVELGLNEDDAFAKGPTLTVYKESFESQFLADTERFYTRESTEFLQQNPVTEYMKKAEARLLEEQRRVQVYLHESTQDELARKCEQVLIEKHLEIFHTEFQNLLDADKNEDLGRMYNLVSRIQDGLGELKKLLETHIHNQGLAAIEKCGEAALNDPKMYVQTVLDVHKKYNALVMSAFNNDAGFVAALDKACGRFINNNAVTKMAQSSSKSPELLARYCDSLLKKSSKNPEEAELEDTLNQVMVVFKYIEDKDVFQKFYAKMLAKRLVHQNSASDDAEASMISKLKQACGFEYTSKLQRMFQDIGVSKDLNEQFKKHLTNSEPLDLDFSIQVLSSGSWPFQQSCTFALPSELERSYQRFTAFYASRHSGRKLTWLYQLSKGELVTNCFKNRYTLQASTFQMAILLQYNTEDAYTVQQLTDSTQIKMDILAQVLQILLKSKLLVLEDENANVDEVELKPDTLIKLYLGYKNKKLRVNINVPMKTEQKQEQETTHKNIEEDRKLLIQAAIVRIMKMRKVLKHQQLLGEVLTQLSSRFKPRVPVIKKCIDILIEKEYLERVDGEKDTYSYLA
UniProt Q6PI48: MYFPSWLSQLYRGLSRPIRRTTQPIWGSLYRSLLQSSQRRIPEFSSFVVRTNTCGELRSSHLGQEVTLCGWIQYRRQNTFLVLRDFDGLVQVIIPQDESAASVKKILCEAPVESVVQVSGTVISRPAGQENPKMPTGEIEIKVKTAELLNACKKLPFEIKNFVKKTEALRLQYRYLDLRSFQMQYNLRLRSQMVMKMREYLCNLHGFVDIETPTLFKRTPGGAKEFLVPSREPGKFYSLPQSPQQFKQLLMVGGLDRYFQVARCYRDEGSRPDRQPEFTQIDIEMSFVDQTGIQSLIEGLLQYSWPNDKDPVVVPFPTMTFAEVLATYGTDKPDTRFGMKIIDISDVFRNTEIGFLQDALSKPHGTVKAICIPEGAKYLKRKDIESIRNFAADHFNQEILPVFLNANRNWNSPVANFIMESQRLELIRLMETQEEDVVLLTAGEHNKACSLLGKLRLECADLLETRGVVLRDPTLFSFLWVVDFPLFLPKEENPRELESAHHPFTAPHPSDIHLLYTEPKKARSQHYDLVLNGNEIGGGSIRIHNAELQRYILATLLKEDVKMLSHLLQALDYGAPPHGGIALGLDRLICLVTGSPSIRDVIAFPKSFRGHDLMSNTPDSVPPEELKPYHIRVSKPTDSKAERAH
UniProt P17812: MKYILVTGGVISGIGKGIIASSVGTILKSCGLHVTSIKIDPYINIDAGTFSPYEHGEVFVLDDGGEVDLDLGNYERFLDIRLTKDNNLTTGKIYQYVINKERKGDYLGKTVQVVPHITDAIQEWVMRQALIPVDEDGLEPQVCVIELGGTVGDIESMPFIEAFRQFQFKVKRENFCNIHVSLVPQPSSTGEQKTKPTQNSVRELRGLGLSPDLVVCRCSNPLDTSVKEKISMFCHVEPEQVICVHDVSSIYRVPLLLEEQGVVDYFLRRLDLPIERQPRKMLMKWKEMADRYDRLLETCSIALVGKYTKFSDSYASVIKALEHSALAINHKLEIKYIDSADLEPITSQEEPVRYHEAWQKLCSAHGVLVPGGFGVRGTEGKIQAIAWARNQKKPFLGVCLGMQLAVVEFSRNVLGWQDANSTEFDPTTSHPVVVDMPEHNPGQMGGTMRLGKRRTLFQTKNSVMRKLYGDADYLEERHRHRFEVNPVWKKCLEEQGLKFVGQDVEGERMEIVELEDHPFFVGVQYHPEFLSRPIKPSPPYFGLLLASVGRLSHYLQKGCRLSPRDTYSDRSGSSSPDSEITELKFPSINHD
UniProt Q9UK59: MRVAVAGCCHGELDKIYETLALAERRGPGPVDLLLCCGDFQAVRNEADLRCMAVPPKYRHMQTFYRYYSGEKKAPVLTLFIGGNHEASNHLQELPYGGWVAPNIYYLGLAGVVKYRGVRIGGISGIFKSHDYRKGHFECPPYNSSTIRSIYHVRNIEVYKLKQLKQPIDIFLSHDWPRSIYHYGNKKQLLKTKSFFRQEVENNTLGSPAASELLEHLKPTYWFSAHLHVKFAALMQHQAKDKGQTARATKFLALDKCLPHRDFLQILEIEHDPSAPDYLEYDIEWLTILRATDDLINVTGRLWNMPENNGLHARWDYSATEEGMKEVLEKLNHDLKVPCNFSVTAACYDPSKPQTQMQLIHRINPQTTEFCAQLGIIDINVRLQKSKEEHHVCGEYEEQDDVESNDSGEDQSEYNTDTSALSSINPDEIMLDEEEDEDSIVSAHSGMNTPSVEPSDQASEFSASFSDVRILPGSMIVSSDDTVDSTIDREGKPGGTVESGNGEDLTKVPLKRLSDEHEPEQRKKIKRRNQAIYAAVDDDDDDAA
UniProt Q8TB03: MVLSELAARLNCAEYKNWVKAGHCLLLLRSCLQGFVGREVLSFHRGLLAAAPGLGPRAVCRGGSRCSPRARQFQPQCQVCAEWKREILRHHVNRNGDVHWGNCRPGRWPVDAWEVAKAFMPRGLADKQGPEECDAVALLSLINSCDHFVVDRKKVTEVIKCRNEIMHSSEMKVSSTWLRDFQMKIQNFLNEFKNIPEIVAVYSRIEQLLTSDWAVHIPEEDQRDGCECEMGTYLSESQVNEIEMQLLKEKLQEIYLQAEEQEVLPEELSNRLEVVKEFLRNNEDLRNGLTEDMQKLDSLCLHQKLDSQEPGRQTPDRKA
UniProt Q9UJU6: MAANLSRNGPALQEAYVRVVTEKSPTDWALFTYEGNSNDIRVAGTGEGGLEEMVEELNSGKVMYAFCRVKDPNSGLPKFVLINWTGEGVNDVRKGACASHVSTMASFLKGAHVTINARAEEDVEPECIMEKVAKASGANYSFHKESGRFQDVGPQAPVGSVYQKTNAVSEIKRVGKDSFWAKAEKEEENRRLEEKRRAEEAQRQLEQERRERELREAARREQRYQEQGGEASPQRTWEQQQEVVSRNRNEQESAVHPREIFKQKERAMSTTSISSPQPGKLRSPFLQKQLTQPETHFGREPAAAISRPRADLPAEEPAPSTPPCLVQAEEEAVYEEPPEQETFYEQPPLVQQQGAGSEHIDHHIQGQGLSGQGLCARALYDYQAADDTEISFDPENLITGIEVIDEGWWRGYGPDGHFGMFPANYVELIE
UniProt Q5D0E6: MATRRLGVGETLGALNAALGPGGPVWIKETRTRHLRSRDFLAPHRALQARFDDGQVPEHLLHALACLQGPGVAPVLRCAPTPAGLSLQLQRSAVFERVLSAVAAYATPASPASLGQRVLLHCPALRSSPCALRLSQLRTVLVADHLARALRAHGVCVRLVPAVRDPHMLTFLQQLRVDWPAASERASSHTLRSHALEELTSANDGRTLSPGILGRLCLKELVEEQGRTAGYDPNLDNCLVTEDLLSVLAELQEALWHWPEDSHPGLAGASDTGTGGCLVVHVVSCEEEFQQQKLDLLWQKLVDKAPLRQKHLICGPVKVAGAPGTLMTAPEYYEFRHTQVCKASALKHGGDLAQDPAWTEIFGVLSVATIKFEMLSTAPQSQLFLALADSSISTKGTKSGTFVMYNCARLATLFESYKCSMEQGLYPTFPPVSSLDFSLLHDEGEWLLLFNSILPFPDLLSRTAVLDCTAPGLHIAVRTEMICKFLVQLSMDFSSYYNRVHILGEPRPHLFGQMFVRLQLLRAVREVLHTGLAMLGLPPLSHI
UniProt Q9P0U4, whole entry, looked up: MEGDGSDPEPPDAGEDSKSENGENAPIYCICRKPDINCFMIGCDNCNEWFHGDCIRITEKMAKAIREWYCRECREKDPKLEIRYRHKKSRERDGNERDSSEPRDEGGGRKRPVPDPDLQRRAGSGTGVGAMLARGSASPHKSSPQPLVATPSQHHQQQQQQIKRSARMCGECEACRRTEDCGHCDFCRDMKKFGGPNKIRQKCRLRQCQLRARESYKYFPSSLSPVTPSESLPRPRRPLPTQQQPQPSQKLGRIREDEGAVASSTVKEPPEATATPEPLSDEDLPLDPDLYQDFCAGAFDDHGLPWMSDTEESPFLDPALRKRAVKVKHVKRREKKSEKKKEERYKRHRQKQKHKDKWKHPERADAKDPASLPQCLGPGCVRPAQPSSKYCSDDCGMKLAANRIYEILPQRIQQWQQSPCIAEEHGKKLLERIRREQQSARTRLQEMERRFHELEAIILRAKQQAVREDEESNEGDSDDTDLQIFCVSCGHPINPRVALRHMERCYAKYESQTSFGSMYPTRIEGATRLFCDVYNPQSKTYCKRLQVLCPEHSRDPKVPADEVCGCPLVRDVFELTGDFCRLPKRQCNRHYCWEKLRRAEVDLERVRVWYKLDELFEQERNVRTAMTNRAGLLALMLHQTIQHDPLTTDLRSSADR
UniProt P08311: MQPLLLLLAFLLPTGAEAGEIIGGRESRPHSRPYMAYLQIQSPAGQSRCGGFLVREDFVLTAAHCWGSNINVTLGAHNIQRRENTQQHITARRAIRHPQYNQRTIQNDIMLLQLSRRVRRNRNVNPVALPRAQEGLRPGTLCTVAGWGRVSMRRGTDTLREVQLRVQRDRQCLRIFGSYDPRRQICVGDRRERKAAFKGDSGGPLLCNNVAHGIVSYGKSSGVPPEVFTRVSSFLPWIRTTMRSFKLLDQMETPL
UniProt Q9HCG8: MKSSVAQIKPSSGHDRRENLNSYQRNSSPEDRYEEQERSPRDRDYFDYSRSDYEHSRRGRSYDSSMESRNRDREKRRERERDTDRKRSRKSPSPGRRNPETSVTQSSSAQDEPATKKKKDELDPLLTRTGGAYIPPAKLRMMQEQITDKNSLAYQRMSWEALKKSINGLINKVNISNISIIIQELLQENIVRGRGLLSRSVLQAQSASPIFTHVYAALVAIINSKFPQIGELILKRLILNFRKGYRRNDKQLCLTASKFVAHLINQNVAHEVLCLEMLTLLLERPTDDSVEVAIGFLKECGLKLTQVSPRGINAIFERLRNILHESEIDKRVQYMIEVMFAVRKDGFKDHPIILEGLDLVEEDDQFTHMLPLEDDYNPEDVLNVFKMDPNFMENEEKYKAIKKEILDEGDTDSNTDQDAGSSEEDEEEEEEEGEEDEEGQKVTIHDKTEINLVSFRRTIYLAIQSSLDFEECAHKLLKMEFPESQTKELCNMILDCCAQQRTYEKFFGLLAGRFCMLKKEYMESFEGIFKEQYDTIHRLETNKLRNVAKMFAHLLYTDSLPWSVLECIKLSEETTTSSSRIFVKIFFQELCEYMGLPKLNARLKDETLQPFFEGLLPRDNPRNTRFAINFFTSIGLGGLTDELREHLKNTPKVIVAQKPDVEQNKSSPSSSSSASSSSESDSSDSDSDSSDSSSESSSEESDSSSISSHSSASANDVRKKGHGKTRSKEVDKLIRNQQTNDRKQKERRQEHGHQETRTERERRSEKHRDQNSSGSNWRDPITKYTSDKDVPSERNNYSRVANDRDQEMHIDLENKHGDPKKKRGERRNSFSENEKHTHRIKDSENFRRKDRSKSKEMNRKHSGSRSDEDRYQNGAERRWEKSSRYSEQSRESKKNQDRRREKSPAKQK
UniProt Q8WV16: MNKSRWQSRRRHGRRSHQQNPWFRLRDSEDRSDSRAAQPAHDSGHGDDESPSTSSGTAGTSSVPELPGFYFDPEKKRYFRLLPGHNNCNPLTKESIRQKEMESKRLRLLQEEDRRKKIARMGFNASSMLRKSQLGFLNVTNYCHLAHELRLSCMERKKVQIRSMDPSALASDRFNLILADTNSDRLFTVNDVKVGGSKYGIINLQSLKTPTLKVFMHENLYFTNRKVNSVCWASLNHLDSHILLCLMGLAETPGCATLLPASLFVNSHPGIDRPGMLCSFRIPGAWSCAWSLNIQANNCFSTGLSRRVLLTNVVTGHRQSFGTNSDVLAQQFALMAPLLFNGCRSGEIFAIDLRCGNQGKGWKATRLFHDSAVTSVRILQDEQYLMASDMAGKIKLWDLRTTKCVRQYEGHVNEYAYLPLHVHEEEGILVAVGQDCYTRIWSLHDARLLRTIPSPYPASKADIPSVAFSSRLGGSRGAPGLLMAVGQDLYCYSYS

Compound: CC1Cc2ccccc2N1C(=O)C1CCCN(C1)C(=O)CCl (mixture of isomers) [TRIM25 ligand 11 (diastereomer mixture)]
Assay: probe-labelled cysteine peptide fold change vs DMSO (competition) (log2 fold change); higher = less target engagement (more negative = stronger competition)
Details: THP-1, incubation time: 4 h
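Note: competitive chemoproteomic profiling in live THP-1 cells with an iodoacetamide desthiobiotin (IA-DTB) probe, comparing probe-labelled peptide intensities in compound-treated cells against DMSO-treated controls.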

DAZAP1_Q96EP5_39_SYFSQYGEVVDCVIMK (UniProt Q96EP5)
probe-labelled cysteine peptide fold change (10 µM): 0.1 | probe-labelled cysteine peptide fold change (50 µM): 0.139

CUL1_Q13616_291_CEQVLIEK (UniProt Q13616)
probe-labelled cysteine peptide fold change (10 µM): 0.00883 | probe-labelled cysteine peptide fold change (50 µM): 0.0525

DARS2_Q6PI48_590_LICLVTGSPSIRDVIAFPK (UniProt Q6PI48)
probe-labelled cysteine peptide fold change (10 µM): -0.393 | probe-labelled cysteine peptide fold change (50 µM): 0.0388

CTPS1_P17812_362_LCSAHGVLVPGGFGVR (UniProt P17812)
probe-labelled cysteine peptide fold change (10 µM): 0.0757 | probe-labelled cysteine peptide fold change (50 µM): 0.0119

DBR1_Q9UK59_37_RGPGPVDLLLCCGDFQAVR (UniProt Q9UK59)
probe-labelled cysteine peptide fold change (10 µM): 0.1 | probe-labelled cysteine peptide fold change (50 µM): -0.0176

CXorf38_Q8TB03_12_LNCAEYK (UniProt Q8TB03)
probe-labelled cysteine peptide fold change (10 µM): -0.129 | probe-labelled cysteine peptide fold change (50 µM): -0.036

DBNL_Q9UJU6_97_GACASHVSTMASFLK (UniProt Q9UJU6)
probe-labelled cysteine peptide fold change (10 µM): 0.0766 | probe-labelled cysteine peptide fold change (50 µM): -0.34

DALRD3_Q5D0E6_314_HLICGPVK (UniProt Q5D0E6)
probe-labelled cysteine peptide fold change (10 µM): -0.0996 | probe-labelled cysteine peptide fold change (50 µM): 0.467

CXXC1_Q9P0U4_566_VPADEVCGCPLVR (UniProt Q9P0U4)
probe-labelled cysteine peptide fold change (10 µM): 0.235 | probe-labelled cysteine peptide fold change (50 µM): 0.11

CTSG_P08311_142_AQEGLRPGTLCTVAGWGR (UniProt P08311)
probe-labelled cysteine peptide fold change (10 µM): -0.072 | probe-labelled cysteine peptide fold change (50 µM): 0.0476

DCAF6_Q58WW2_766_HTAEHLMLLEADNHVVNCLQPHPFDPILASSGIDYDIK (UniProt Q58WW2)
probe-labelled cysteine peptide fold change (10 µM): 0.119 | probe-labelled cysteine peptide fold change (50 µM): -0.141

CWC22_Q9HCG8_253_QLCLTASK (UniProt Q9HCG8)
probe-labelled cysteine peptide fold change (10 µM): -0.105 | probe-labelled cysteine peptide fold change (50 µM): -0.0661

CXorf38_Q8TB03_103_NGDVHWGNCRPGR (UniProt Q8TB03)
probe-labelled cysteine peptide fold change (10 µM): 0.0637 | probe-labelled cysteine peptide fold change (50 µM): 0.181

DCAF4_Q8WV16_88_LLPGHNNCNPLTK (UniProt Q8WV16)
probe-labelled cysteine peptide fold change (10 µM): -0.0395 | probe-labelled cysteine peptide fold change (50 µM): 0.0033
